The source of these data is paper PMC2629544.

For the test, the target named is T1, Xdsh N-terminal fragment (residues 1-268), yeast two-hybrid bait (X. laevis) (UniProt P51142).
T1 sequence: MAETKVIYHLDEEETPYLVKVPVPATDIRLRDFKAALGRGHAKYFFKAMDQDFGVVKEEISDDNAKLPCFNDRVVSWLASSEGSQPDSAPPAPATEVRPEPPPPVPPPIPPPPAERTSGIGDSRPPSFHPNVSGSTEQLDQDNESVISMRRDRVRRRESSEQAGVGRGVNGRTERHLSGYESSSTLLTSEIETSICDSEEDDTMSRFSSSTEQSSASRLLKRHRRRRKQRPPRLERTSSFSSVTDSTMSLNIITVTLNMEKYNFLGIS
The experiment in a line: two-hybrid; same screen, clones reported as data not shown; bait Xdsh residues 1-268.

Results are given in words; binding and its absence hold for the method and conditions named. Some entries that bind do so weakly or less than the wild type.

B1: Dsh DIX domain clones, yeast two-hybrid prey (domain or fragment, UniProt P51142 1-82)
chain: MAETKVIYHLDEEETPYLVKVPVPATDIRLRDFKAALGRGHAKYFFKAMDQDFGVVKEEISDDNAKLPCFNDRVVSWLASSE
Consider B1, for which the binding result is “binds”.
